Here are results for 4 sequences from article PMC11597096.

Protein sequences, listed by entry. Tags and fused reporters are not part of them. Residues count along the entry.
UniProt P09874, whole entry: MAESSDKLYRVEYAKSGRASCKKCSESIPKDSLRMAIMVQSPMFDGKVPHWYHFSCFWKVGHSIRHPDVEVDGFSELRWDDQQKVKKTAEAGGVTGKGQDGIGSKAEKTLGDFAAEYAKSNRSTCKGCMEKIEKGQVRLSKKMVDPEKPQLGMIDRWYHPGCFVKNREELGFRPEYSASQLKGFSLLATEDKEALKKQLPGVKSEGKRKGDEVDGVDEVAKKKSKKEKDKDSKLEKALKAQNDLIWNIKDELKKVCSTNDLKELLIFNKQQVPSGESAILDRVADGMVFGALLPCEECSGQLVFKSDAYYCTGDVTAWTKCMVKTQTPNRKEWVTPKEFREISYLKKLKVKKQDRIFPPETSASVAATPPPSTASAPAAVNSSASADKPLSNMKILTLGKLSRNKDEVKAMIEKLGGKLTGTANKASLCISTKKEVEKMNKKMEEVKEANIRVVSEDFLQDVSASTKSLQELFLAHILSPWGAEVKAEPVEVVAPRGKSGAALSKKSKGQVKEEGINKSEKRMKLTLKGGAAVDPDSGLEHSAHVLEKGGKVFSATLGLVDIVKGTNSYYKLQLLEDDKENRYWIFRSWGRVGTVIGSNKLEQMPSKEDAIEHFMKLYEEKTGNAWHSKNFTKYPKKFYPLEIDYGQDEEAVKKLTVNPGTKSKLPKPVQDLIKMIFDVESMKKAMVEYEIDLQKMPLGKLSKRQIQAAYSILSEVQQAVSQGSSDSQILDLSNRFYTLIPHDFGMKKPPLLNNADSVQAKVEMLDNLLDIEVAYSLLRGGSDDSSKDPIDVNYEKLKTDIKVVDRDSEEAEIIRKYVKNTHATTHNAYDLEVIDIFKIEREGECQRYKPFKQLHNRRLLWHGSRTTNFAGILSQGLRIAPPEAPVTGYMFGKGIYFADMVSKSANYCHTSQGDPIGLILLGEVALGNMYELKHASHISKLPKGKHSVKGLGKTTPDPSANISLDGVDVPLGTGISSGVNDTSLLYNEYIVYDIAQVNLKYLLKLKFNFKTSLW
UniProt P09874, 2-1014: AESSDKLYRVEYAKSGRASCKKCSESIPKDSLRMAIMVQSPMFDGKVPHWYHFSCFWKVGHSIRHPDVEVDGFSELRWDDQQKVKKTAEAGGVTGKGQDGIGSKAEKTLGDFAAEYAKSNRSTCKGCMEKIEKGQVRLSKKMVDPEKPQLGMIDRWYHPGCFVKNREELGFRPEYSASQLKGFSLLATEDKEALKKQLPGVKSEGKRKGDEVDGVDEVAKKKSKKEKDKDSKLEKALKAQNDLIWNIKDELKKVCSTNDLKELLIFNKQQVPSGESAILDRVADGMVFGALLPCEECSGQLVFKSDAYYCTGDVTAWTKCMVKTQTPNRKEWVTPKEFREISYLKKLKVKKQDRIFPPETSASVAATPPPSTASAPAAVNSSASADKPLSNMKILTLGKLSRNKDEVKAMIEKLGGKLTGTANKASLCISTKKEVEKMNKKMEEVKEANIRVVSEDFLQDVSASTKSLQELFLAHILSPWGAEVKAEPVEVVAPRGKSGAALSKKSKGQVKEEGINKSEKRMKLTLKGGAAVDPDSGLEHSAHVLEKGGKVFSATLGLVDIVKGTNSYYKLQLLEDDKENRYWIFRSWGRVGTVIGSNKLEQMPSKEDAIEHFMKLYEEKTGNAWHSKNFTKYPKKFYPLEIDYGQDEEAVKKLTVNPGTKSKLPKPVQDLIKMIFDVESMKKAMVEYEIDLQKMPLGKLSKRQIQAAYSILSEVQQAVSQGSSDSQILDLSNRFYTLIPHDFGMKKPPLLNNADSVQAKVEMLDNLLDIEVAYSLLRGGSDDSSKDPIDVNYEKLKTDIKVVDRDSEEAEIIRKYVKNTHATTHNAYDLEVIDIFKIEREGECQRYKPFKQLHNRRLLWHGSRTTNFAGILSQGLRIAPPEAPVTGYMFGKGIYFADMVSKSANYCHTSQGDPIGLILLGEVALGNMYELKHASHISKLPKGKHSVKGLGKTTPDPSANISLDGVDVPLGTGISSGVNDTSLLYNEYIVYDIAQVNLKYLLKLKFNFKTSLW

One data set addresses PARP1 (Homo sapiens) (UniProt P09874). As to the kind of experiment: BLI. As to conditions: BLI: 1x PBS pH 7.4, 25 °C, SAX biosensors, biotinylated oligo loaded at 2 uM, PARP1 2.5-162 nM, recombinant protein, label: 5'-biotin.
Data set [1] concerns the target PARP1 (G01 lysate) (Homo sapiens (G01 glioblastoma cell culture)) (UniProt P09874). As to the kind of experiment: pull-down + LC-MS. Particulars: RNase A treated, Pull-down: 25 mM Tris-HCl pH 7.4, 150 mM NaCl, 1 mM EDTA, 1% NP-40, 5% glycerol, 0.1 mM DTT, room temperature, protein in an extract, label: biotin.

For part of these data: Results from cells or extracts need not show a direct contact. Negatives hold for the conditions tested. For part of these data: At least one verdict rests on a figure or table, not on a statement of the authors. The exact form of at least one protein or probe is not confirmed. For part of these data: A weaker result is weaker than the reference pair of the same experiment.

With CATTTAGGACCAACACAA [SS-DNA control], the binding result is on record as “no binding” in the data set with PARP1 (Homo sapiens) (0.1 mg/mL salmon sperm DNA, signal completely disappeared, single-stranded DNA) and “binds more weakly” with PARP1 (Homo sapiens) (no competitor, amplitude about 1 versus 8 for bi-(AID-1-T), signal from 20 nM PARP1, single-stranded DNA).

For the sequence “GGACGGGGATTTAATCGCCGTAGTAGAAAAGCATGTCAAAAGCCGGAACCGTCC [pull-down control oligonucleotide]”, in data set [1] (single-stranded DNA), the binding result is “no binding”.

As to “GGGTGGTGGGTGGTGGTGGTGGTGGTGGTGGTGGTGGTGGTGGTGGTGGTGGTGGTGGG [bi-(AID-1-T) as printed in pull-down methods]”, in data set [1] (folded or branched DNA), the binding result was “binds”.

In the case of “GCCGGCATTTTGACGCCGCCCCGGCTGCTTATGCTCCGGGGCATATGGC [DS-DNA control (hairpin)]”, the binding result was “binds more weakly” with PARP1 (Homo sapiens) (0.1 mg/mL salmon sperm DNA, signal significantly reduced, folded or branched DNA) and “binds” with PARP1 (Homo sapiens) (no competitor, amplitude about 8, signal from 20 nM PARP1, folded or branched DNA).
